## Percent effect of library compounds

Data taken from ChEMBL document CHEMBL3988442, “University of Dundee, Small-Polar-MMV Screening Library” (2021).

Mtb cholesterol medium: 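Whole-cell growth test on Mycobacterium tuberculosis, read after 4 days in a medium based on cholesterol and the lipid DPPC; the read-out is not stated. Tested at 50 µM. Higher reads as more growth inhibition (inferred: compounds with an IC50 in retests scored well above the rest). About 69,000 compounds were tested under these conditions; 0.54% (about 370) showed 50% or more at least once.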
Mtb glucose medium: 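Whole-cell growth test on Mycobacterium tuberculosis, read after 3 days in glucose-containing 7H9 medium; the read-out is not stated. Tested at 50 µM. Direction is inferred from retests: higher values go with more growth inhibition. Size under these conditions: about 69,000 compounds, about 760 of them at 50% or above in at least one test.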

Each number is a percent effect as filed. The record does not define 0% and 100%; most values in the screen are far below 50% and negative numbers occur (in some assays of this library far below -100). Compounds were drawn at random from those tested, without regard to their results. Two or more numbers in one place are separate tests of the same structure; such repeats can differ widely.

- [H][C@]12CN(Cc3ccccc3Cl)CCN1C(=O)N(Cc1ccc(C)cc1)C2 : Mtb cholesterol medium: -1.111%; Mtb glucose medium: 13.69% & -25.64%
- CCNc1cc2c(nn1)CCN(C(=O)c1cc3c(s1)CCOC3)C2 : Mtb cholesterol medium: -24.08%; Mtb glucose medium: -14.25%
- O=C(c1cnccn1)N1CCCC(c2cccc(-n3ccnc3)n2)C1 (configuration not stated) : Mtb cholesterol medium: -5.37%; Mtb glucose medium: 6.336%
- Cc1nnc(NC(=O)NCc2ccc(N3CCNC(=O)C3)cc2)s1 : Mtb cholesterol medium: -27.15%; Mtb glucose medium: -20.59%
- CC(C)NC(=O)CC(C)NCc1cc(Cl)ccc1F (configuration not stated) : Mtb cholesterol medium: -2.398%; Mtb glucose medium: -31.24%
- NC(=O)NC(=O)CCN1CCCC1c1cccc2c1OCCO2 (configuration not stated) : Mtb cholesterol medium: 2.725% & -3.251%; Mtb glucose medium: 13.19%
- CN(CC(=O)N1CCC(C(O)c2ccccc2)CC1)c1cnccn1 (configuration not stated) : Mtb cholesterol medium: 4.292%; Mtb glucose medium: 13.03%
- Cc1ccc(CNc2ccccc2-n2ccc(C)n2)nc1 : Mtb cholesterol medium: 24.65%; Mtb glucose medium: 37.73% & 34.47%
- CN(Cc1cccc(C(N)=O)c1)CC1CCCN1c1cccnn1 (configuration not stated) : Mtb cholesterol medium: 5.966%; Mtb glucose medium: 5.402%
- CN(C)CCNc1c(-c2ccccc2)c(=O)c1=O : Mtb cholesterol medium: -3.596%; Mtb glucose medium: 6.612%
- FC(F)(F)Oc1ccc(-c2noc([C@@H]3Cc4nc[nH]c4CN3)n2)cc1 : Mtb cholesterol medium: 29.07%; Mtb glucose medium: 39.29% & 38.51%
- Cc1oc(C(=O)O)cc1S(=O)(=O)Nc1c(F)cccc1-n1cccn1 : Mtb cholesterol medium: -12.88%; Mtb glucose medium: 7.595%
- O=C(Nc1ccccc1OC(F)F)C1=NN(c2ccccc2)C(=O)CN1 : Mtb cholesterol medium: -6.685%; Mtb glucose medium: -31.45%
- CC(NCCn1cccn1)c1ccccc1F (configuration not stated) : Mtb cholesterol medium: -11.59%; Mtb glucose medium: -14.02%
- COCC1CN(C(=O)C2=CCCC2)Cc2cnn(CC3CC3)c21 (configuration not stated) : Mtb cholesterol medium: -6.615% & 3.824%; Mtb glucose medium: 24.73% & -2.148%
- OC(COCc1ccccc1Cl)CN1CC(n2cccn2)C1 (configuration not stated) : Mtb cholesterol medium: -26.97%; Mtb glucose medium: -3.177%
- O=C1CC2(CCCC2)CC(=O)N1Cc1ncccn1 : Mtb cholesterol medium: -25.71%; Mtb glucose medium: -13.79%
- CC1CCN(S(=O)(=O)NCc2ccccc2Cn2cncn2)CC1 : Mtb cholesterol medium: -22.32%; Mtb glucose medium: -15.36%
- COc1cc(S(=O)(=O)N2CCc3cc(Br)ccc32)cc(C(=O)O)c1OC : Mtb cholesterol medium: 20.98%; Mtb glucose medium: 11.01%
- CN(C)CC1CN(c2cnc3ccccc3n2)CCO1 (configuration not stated) : Mtb cholesterol medium: 3.832%; Mtb glucose medium: 22.49%
- O=C(NC1CC1)c1cccc(Oc2ccc3nncn3n2)c1 : Mtb cholesterol medium: -5.779%; Mtb glucose medium: 32.3%
- Cc1nc(N)ncc1C(=O)N1CCCC(CCc2ccc(F)cc2)C1 (configuration not stated) : Mtb cholesterol medium: 7.266%; Mtb glucose medium: -0.4973% & -9.165%
- CCCc1nc(N2CCCN(c3ncccn3)CC2)c2cnn(C)c2n1 : Mtb cholesterol medium: -10.73%; Mtb glucose medium: -29.78%
- CSc1ccc(C(C(=O)O)N2CCCC2)cc1 (configuration not stated) : Mtb cholesterol medium: -4.754%; Mtb glucose medium: -23.61%
- [H][C@]12CCN(C(=O)N3CCCC3)[C@@]1([H])CCC(=O)N2Cc1ccncc1 : Mtb cholesterol medium: -16.74%; Mtb glucose medium: -3.439%
- CCn1c(=O)n(CC)c2cc(S(N)(=O)=O)ccc21 : Mtb cholesterol medium: -7.472%; Mtb glucose medium: 22.35%
- CC(=O)N1CCC(NC(=O)N2CCCC2c2ccsc2)CC1 (configuration not stated) : Mtb cholesterol medium: -1.112%; Mtb glucose medium: -1.867% & -41.96%
- CC(=O)N1CCC(c2nc(C)cc(-c3ccccc3C(=O)O)n2)CC1 : Mtb cholesterol medium: 5.514%; Mtb glucose medium: 26.56%
- CC(C)C1CN(C(=O)c2cc(F)cc3[nH]cnc23)CCS1 (configuration not stated) : Mtb cholesterol medium: 5.958%; Mtb glucose medium: -32.74%
- CC(C)c1cc(C(=O)NCCc2nc(-c3cccnc3)n[nH]2)[nH]n1 : Mtb cholesterol medium: -17.08% & -37.86%; Mtb glucose medium: -27.1%
- COCCC1COC2(CCN(C(=O)c3ccco3)CC2)C1 (configuration not stated) : Mtb cholesterol medium: 15.49%; Mtb glucose medium: 28.67%
- CC(C(=O)N1CCN(C(=O)c2ccc(F)cc2F)CC1)n1ccnc1 (configuration not stated) : Mtb cholesterol medium: 8.754%; Mtb glucose medium: 23.96%
- CCOCC1CN(C(=O)C2=CCCC2)Cc2cnn(CC)c21 (configuration not stated) : Mtb cholesterol medium: -15.85%; Mtb glucose medium: 5.04%
- CC(C)n1nc(CN2CCCC2=O)c2c1CN(C(=O)c1ccc[nH]1)C2 : Mtb cholesterol medium: -3.762%; Mtb glucose medium: -21.93%
- COc1ccc(C)cc1C(=O)N1CCCC(n2cncn2)C1 (configuration not stated) : Mtb cholesterol medium: -7.901%; Mtb glucose medium: -10.14%
- CN(C)CCN(Cc1cccc(C(F)(F)F)c1)C(=O)c1cc[nH]n1 : Mtb cholesterol medium: -1.516%; Mtb glucose medium: -19.02% & 1.592%
- COc1ccc(-c2nnc(SC(C)C(=O)NC3CCCC3)[nH]2)c(OC)c1 (configuration not stated) : Mtb cholesterol medium: -2.483% & -11.07%; Mtb glucose medium: 0.8693%
- CCN1CCN(C(=O)c2cnn(-c3ccccc3Cl)c2)CC1 : Mtb cholesterol medium: 13.46%; Mtb glucose medium: 20%
- CNC(=O)c1cnc2c(C)csc2c1 : Mtb cholesterol medium: -3.401%; Mtb glucose medium: -24.2%
- CSCC[C@H](N)C(=O)NCc1cc2n(n1)CCCN(C(=O)N(C)C)C2 : Mtb cholesterol medium: 0.4658%; Mtb glucose medium: 8.499%
- O=C(CCNC1(c2nccs2)CCCC1)N1CCOCC1 : Mtb cholesterol medium: -4.332%; Mtb glucose medium: 16.03% & -5.323%
- Cn1ccnc1CN1CCC2(CC1)COCCN(c1ncccn1)C2 : Mtb cholesterol medium: 5.77%; Mtb glucose medium: 26.32%
- CCOC(=O)NC(CNC(=O)c1ccccn1)CC(C)C (configuration not stated) : Mtb cholesterol medium: -13.5%; Mtb glucose medium: -3.762%
- [H][C@@]12CCCO[C@]1([H])[C@H](Oc1cccnc1)CN2C(=O)Cc1ccccn1 : Mtb cholesterol medium: -5.221% & -12.9%; Mtb glucose medium: 6.444%
- CCCC(=O)NC(C)c1nnc2n1CCC2 (configuration not stated) : Mtb cholesterol medium: -9.469%; Mtb glucose medium: 5.285%

The last 4 entries again:

With Cn1ccnc1CN1CCC2(CC1)COCCN(c1ncccn1)C2 the screen gave Mtb cholesterol medium: 5.77%; Mtb glucose medium: 26.32%.
With CCOC(=O)NC(CNC(=O)c1ccccn1)CC(C)C (configuration not stated) the screen gave Mtb cholesterol medium: -13.5%; Mtb glucose medium: -3.762%.
With [H][C@@]12CCCO[C@]1([H])[C@H](Oc1cccnc1)CN2C(=O)Cc1ccccn1 the screen gave Mtb cholesterol medium: -5.221% & -12.9%; Mtb glucose medium: 6.444%.
With CCCC(=O)NC(C)c1nnc2n1CCC2 (configuration not stated) the screen gave Mtb cholesterol medium: -9.469%; Mtb glucose medium: 5.285%.